The target of the experiment is FLAG-TWIST1 (wild type) (human) (UniProt Q15672). In words: co-IP; anti-FLAG M2 resin on lysates of transiently transfected HEK293T cells; lysis and washes in EBC (20 mM Tris pH 8.0, 385 mM NaCl, 2 mM EDTA, 3.5% NP40); blots with FLAG and E2A (V18) antibodies; complexes read from band sizes on SDS-PAGE.

Chains of the proteins cited; added tags and fusions are not shown.
UniProt Q15672: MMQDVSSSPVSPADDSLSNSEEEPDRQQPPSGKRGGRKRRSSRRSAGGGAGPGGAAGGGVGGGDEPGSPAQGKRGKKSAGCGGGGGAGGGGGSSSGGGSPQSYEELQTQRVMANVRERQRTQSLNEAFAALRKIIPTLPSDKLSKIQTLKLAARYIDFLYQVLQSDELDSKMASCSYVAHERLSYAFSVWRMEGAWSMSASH
UniProt P15923: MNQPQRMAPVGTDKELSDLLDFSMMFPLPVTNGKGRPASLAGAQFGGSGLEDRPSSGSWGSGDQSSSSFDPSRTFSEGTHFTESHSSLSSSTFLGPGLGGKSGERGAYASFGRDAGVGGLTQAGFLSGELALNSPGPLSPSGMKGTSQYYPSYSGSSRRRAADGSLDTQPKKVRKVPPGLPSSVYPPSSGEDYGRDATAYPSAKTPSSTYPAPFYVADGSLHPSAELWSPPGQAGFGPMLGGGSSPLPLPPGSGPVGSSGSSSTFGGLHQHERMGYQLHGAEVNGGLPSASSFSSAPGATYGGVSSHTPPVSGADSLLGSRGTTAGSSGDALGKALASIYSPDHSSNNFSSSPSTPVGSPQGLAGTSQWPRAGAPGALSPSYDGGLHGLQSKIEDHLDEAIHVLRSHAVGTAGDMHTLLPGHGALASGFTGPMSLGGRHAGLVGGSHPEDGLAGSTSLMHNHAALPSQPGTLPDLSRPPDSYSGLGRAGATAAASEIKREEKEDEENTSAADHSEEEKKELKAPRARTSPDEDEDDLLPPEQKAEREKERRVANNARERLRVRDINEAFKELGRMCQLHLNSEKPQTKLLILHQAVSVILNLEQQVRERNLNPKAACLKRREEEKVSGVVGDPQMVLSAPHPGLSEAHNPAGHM

Results are given in words; binding and its absence hold for the method and conditions named. Binding seen in cells or lysates may run through a third protein. Some entries that bind do so weakly or less than the wild type.

Turning to “MYC-TAG E12 (wild type) (from UniProt P15923 1-654)”, the binding entry was “binds”.
